The target of test [1] is T1, BSB PyV-LTA;NLS peptide (Black Sea Bass polyomavirus large tumor antigen residues 660-683) (Black Sea Bass polyomavirus).
T1 sequence (peptide, Ahx-FITC on the N-terminus): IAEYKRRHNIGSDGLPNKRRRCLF
Kind of test: native gel or EMSA.

For test [2] the target is unchanged. Kind of test: fluorescence polarisation. On the technique in general: Fluorescence polarisation rises when a labelled molecule tumbles more slowly, as on binding a larger partner.

Data on four substances can be found in doi:10.1101/2025.05.20.655083.

These are yes or no findings as the source states them, for the method shown. Binding can be weak; no strength is given.

As to “human importin α1 ΔIBB (domain or fragment)”, the binding entry in test [1] and in test [2] was “binds” throughout.
Turning to “human importin α3 ΔIBB (domain or fragment)”, the binding entry in test [1] and in test [2] was “binds” throughout.
Consider “human importin α5 ΔIBB (domain or fragment)”, for which the binding result in test [1] and in test [2] was “binds” in each case.
On to “human importin α7 ΔIBB (domain or fragment)”, for which the binding entry in test [1] and in test [2] was “binds” each time.
